These are yes or no findings as the source states them, for the method shown. For some of these results: In cells and extracts the contact can be indirect. Some results given as binding are weak or reduced against the parent protein; the word gives no strength. Sequences can lack the tags named with a protein.
T1: AUR1 (alpha-Aurora kinase), yeast two-hybrid fusion (Arabidopsis thaliana) (UniProt Q9M077)
T1 sequence: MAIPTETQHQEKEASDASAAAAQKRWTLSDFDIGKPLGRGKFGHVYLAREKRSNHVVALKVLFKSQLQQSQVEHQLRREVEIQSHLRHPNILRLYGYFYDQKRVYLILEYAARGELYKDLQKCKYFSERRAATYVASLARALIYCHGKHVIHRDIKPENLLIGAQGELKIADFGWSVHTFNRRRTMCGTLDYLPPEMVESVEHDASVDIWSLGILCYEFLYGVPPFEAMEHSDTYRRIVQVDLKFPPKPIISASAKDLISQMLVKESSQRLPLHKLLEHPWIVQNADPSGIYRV

T2: AUR3 (beta-group Aurora kinase), yeast two-hybrid fusion (Arabidopsis thaliana) (UniProt O64629)
T2 sequence: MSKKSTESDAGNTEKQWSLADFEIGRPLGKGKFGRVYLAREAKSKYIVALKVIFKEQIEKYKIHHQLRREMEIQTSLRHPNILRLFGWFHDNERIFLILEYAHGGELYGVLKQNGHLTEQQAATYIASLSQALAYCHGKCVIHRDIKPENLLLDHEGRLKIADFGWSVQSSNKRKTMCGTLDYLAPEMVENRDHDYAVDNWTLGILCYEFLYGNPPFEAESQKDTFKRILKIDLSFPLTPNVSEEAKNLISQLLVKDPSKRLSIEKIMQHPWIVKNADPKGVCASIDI

T3: AUR1, BiFC fusion (Arabidopsis thaliana) (UniProt Q9M077)
T3 sequence: T1 sequence

T4: AUR3, BiFC fusion (Arabidopsis thaliana) (UniProt O64629)
T4 sequence: T2 sequence

B1: MAP65-3, full length, yeast two-hybrid fusion (protein, UniProt Q9FHM4 1-707)
chain: MASVQKDPILQVETTCGSLLFELQIIWDEVGETETDRDQMLLELERECLEVYRRKVDQANRCRAQLRQAIADAEAQLAAICSAMGERPVHIRQSDQSVGSLKQELGRILPELEEMQKRKVERRNQFIVVMEQIDSITNDIKGQGELVHSEPLIDETNLSMRKLEELHCQLQVLQKEKIDRVETIRKHLCTLYSHCSVLGMDFNEVVGQVNPTLSDPEGPRSLSDHTIEKLGAAVQKLMEVKIQRMQRLQDLATTMLELWNLMDTPIEEQQEYQHITCNIAASEHEITEANSLSEDFIKYVEAEVVRLDEVKASKMKELVLKKRSELEEICRKTHLLPVSDSAIDQTIVAIESGIVDATMVLEHLEQHISKIKEEALSRKEILERVEKWLSACDEESWLEEYNRDDNRYNAGRGAHLTLKRAEKARNLVTKLPGMVEALASKTIVWEQENGIEFLYDGIRLLSMLEEYNILRQEREEEHRRQRDQKKLQGQLIAEQEALYGSKPSPSKPLGGKKAPRMSTGGASNRRLSLGAAMHQTPKPNKKADHRHNDGALSNGRRGLDIAGLPSRKQSMNPSEMLQSPLVRKPFSPISTTVVASKANIATTTTQQLPKNNAVNEISSFATPIKNNNILRNLEEEKMMTMMMQTPKNVAAMIPIPSTPATVSVPMHTAPTPFTNNARLMSEKPEVVEYSFEERRLAFMLQSECRLV
B2: MAP65-3, BiFC fusion (protein, UniProt Q9FHM4 1-707)
chain: B1 chain

Key:
[1] = target: T1, AUR1 (alpha-Aurora kinase), yeast two-hybrid fusion (Arabidopsis thaliana); assay: two-hybrid; pGADT7-GW (AD) and pGBKT7-GW (BD) fusions in yeast strain AH109; growth on -L/-W/-H/-A selection media, 30 °C, 2 days
[2] = target: T2, AUR3 (beta-group Aurora kinase), yeast two-hybrid fusion (Arabidopsis thaliana); assay: as above
[3] = target: T3, AUR1, BiFC fusion (Arabidopsis thaliana); assay: split reporter; BiFC with nYFP and cYFP fusions co-infiltrated into N. benthamiana leaves; YFP signal read after 48 hours
[4] = target: T4, AUR3, BiFC fusion (Arabidopsis thaliana); assay: as above

Binder	binding [1]	binding [2]	binding [3]	binding [4]
B1	binds	no binding	–	–
B2	–	–	binds	no binding

Reference: paper PMC11074315
